The assay can be described thus: qHTS Assay for Lipid Storage Modulators in Drosophila S3 Cells.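 For cell number change: cells counted by Cell Tracker Red CMTPX staining in the red channel.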 The following applies: BODIPY lipid droplet fluorescence, 18-24 h; for cell number change: measured here: cell count max response, cells fed with added oleic acid. The essentials: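 Drosophila S3 cells got compounds at several concentrations plus oleic acid (400 uM solution). Laser-scanning cytometry with 488 nm excitation read lipid droplets at 500-530 nm and cells at 575-640 nm. Percent activity was relative to 20 uM Triacsin C.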
Background: In qHTS, concentration-response curves come from the screen itself.

The mark [1] stands for this setting: measured here: lipid fluorescence (Fed channel) AC50, cells fed with added oleic acid.
Setting [2] is: measured here: cell number channel AC50, cells fed with added oleic acid.

Some of the results follow. The main result of the screen is listed elsewhere. These columns were measured beside it and carry no call. Compounds called inactive in the main read-out are mostly missing here. The note in brackets gives the kind of curve behind each potency; many fits are weak.

Take `O=[N+]([O-])c1ccc(N2CCN(c3ccccn3)CC2)c(Cl)c1`: the cell number change is -11.4%. Besides, under setting [1], the AC50 (commonly the midpoint of the concentration-response curve, whichever way the signal moves) is 6.51 µM [rising, single point].
On to `CCS(=O)(=O)CCSc1nc2ccccc2s1`, for which the cell number change was determined as 36.6%. Also, under setting [2], the AC50 was 29.1 µM [rising, single point]. Under setting [1], the AC50 was 29.1 µM [rising, single point].
Consider `O=C(Nc1cccc(S(=O)(=O)N2CCCCC2)c1)c1cc2ccccc2o1`, for which the cell number change was -13.4%. For the same molecule, the AC50 under setting [1] was 9.2 µM [falling, partial curve].
For `COc1ccc(CN=C2NC(=O)CC(C(=O)Nc3ccc(Cl)cc3)S2)cc1` (configuration not stated), the cell number change was -10.4%. For the same molecule, under setting [2], the AC50 was 0.651 µM [rising, single point].
For the molecule `CCCCn1c(N)c(N(CC(C)C)C(=O)CCCn2c(=O)oc3ccccc32)c(=O)[nH]c1=O`, the cell number change was -11.4%.
As to `COCCn1cnc2c1c(=O)n(Cc1c(F)cccc1Cl)c(=O)n2Cc1ccccc1`, the cell number change is 0.87%.
With `COc1cc(C(=O)N/N=C/c2ccc(OC(=O)c3cccc(C)c3)c(OC)c2)ccc1O`, under setting [1], the concentration at half-maximal activity (AC50) is 29.1 µM [rising, single point].
Regarding `CCOC(=O)c1[nH]c2ccccc2c1N=C(C)N(CC)CC`, the cell number change was found to be 6.66%. The AC50 under setting [1] is 29.1 µM [rising, single point].
Turning to `CC1(C(=O)OCC(=O)Nc2ncc(Cl)cc2Cl)CC1(Cl)Cl` (configuration not stated), the cell number change was 89.2%. Moreover, the half-maximal activity concentration (AC50) under setting [2] is 0.82 µM [falling, single point].
As for `S=C(NC1CCCC1)NC1CCCC1`, the cell number change is 49.5%.
`O=C1N(CN2C(=O)C3(OCCO3)c3ccccc32)c2ccccc2C12OCCO2`: the cell number change was 2.29%. Besides, the AC50 under setting [1] was 2.06 µM [rising, full curve].
As to `COc1ccc(C(CNC(=O)C(C)c2ccc3cc(OC)ccc3c2)N(C)C)cc1` (configuration not stated), the AC50 under setting [1] was 18.4 µM [rising, single point].
As for `CCOc1ccccc1CNC(=O)Cn1ccc2cc(S(=O)(=O)N3CCCC3)ccc21`, the cell number change is -13.4%. For the same molecule, the AC50 under setting [1] is 29.1 µM [rising, partial curve, poor fit].
Consider `CCOc1cc(NC(=S)Nc2cccc(OC)c2)c(OCC)cc1NC(=O)C1CC1`, for which the cell number change worked out at 14.4%.
Consider `Cc1cc(NC(=O)c2cccc3c2C(=O)N(C2CCCCC2)C3)ccc1Br`, for which the cell number change amounted to 30%. The AC50 under setting [1] is 0.651 µM [rising, partial curve, poor fit].
Turning to `Cc1cc2c(c(SCC(N)=O)n1)C(=O)OC2`, the cell number change is -28.5%. Moreover, the AC50 under setting [2] was 0.411 µM [falling, full curve, poor fit]. The AC50 under setting [1] was 0.259 µM [falling, full curve].
For the molecule `Clc1ccc(-c2nc3ncccn3c2Nc2ccc3c(c2)OCO3)cc1`, the cell number change was 16.1%. Moreover, under setting [1], the AC50 was 18.4 µM [rising, single point].
For the molecule `COCCNC(=O)NC(=O)CN1C(=O)NC(Cc2c[nH]c3ccccc23)C1=O` (configuration not stated), the cell number change is -36.2%. Also, under setting [2], the AC50 was 29.1 µM [falling, single point]. For the same molecule, the AC50 under setting [1] is 6.51 µM [falling, single point].
For the molecule `CCOC(=O)c1c(C)[nH]c(C)c1S(=O)(=O)N(C)CC(=O)Nc1ccccc1F`, the cell number change was -17%. Further, the AC50 under setting [1] was 29.1 µM [falling, partial curve, poor fit].
On to `CCn1c(=O)n(CC)c2cc(S(=O)(=O)Nc3c(C)cccc3C)ccc21`, for which the cell number change was -15%. In addition, the AC50 under setting [1] was 0.00517 µM [falling, full curve, poor fit].
As to `CCNc1ccccc(-c2ccc3ccccc3n2)c1=O`, the cell number change was -17.8%. In addition, the AC50 under setting [1] is 32.6 µM [rising, single point].
On to `CCc1ccccc1NC(=O)c1ccc(CN2CCC(Cc3ccccc3)CC2)cc1`, for which the cell number change amounted to 19.2%.
Turning to `COc1ccc(/C(C)=N/Nc2cccc(C(=O)O)c2)cc1OC`, the AC50 is 2.06 µM [rising, partial curve] under setting [2] and 4.11 µM [rising, partial curve] under setting [1].
For the molecule `O=C(COC(=O)c1ccc2c(c1)S(=O)(=O)c1ccccc1C2=O)NC1CC1`, the cell number change worked out at 15.8%. In addition, the AC50 under setting [1] was 0.184 µM [falling, full curve, poor fit].
For the molecule `COc1cccc(OCCNC(=O)c2ccc(C)cc2)c1`, the AC50 under setting [2] is 5.8 µM [rising, single point].
Regarding `CCn1cc(C(=O)Nc2cccc(C(=O)OC)c2)c(=O)c2ccc(C)nc21`, the cell number change turned out to be 15.9%. The half-maximal activity concentration (AC50) under setting [1] was 0.411 µM [rising, single point].
In the case of `COc1ccccc1N(CC(=O)NCCSCc1ccccc1)S(=O)(=O)c1ccc(C)cc1`, the cell number change was -1.32%. In addition, under setting [1], the half-maximal activity concentration (AC50) is 3.55 µM [falling, single point].
For `Cc1cccc(-n2c(N)cc(=O)nc2SCC(=O)Nc2nnc(C)s2)c1`, the cell number change is -13.3%. The AC50 under setting [1] is 6.51 µM [falling, single point].
On to `COc1ccc(C(=O)N2CCN(C(=O)Cc3ccccc3)CC2)cc1`, for which the cell number change was 10.2%. Besides, the AC50 under setting [2] was 0.92 µM [falling, full curve, poor fit].
`Cc1cc(C)cc(OC(=O)C23CCC(C)(C(=O)O2)C3(C)C)c1` (configuration not stated): the cell number change amounted to 23.6%. Under setting [1], the half-maximal activity concentration (AC50) was 2.82 µM [rising, partial curve].
Regarding `Cc1cccc(C)c1NC(=O)C1c2cccc[n+]2CC(=O)N1Cc1cccs1` (configuration not stated), the cell number change is 7.62%. Besides, the AC50 under setting [1] was 32.6 µM [rising, single point].
`O=C(Nc1ccc(F)cc1)C(=O)c1cn(CC(=O)N2CCOCC2)c2ccccc12`: the cell number change was -20.9%. Under setting [1], the AC50 was 29.1 µM [rising, single point].
For the molecule `CN(Cc1ccccc1)C(=O)c1ccc2c(c1)OCCO2`, the cell number change was 24.7%. Further, the AC50 under setting [2] was 2.91 µM [rising, full curve, poor fit]. Moreover, the AC50 under setting [1] was 0.092 µM [rising, full curve, poor fit].
Take `COc1ccc(Cl)cc1NC(=O)CCS(=O)(=O)c1cc2c(cc1C)NC(=O)CO2`: the cell number change was -1.44%. Further, the AC50 under setting [1] was 0.651 µM [falling, full curve].
Turning to `CCCCn1c(N)c(N(CCC(C)C)C(=O)C2CCCO2)c(=O)[nH]c1=O` (configuration not stated), the cell number change was 8.5%.
As for `COc1ccc(C2=NS(=O)(=O)N(C)C(C(=O)N(C)Cc3ccccc3)=C2)cc1`, the cell number change is -1.41%. The AC50 under setting [1] was 29.1 µM [falling, single point].
As for `CC(=O)N1N=C(c2ccc(C)cc2)OC1c1cccnc1` (configuration not stated), the cell number change was -22.1%.
In the case of `CCN(CC(=O)NCc1ccc(F)cc1)C(=O)C1CCN(C(=O)Nc2ccccc2)CC1`, the cell number change was -29.3%.
For the molecule `CCCCCCCC(=O)OC(CN1CCCCCC1)CN1CCCC1=O` (configuration not stated), the cell number change turned out to be 1.28%.
Consider `COc1cc(S(=O)(=O)Nc2ccc3nc(C)sc3c2)ccc1NC(C)=O`, for which the cell number change is -34%. The concentration at half-maximal activity (AC50) under setting [2] was 32.6 µM [falling, single point]. For the same molecule, the AC50 under setting [1] is 6.51 µM [falling, partial curve].
On to `CCCCOc1ccc(/C=N/NC(=S)Nc2cccc(C)c2C)cc1`, for which the cell number change was -2.56%.
Take `O=S(=O)(NCc1cccs1)c1ccc(Cl)s1`: the cell number change was -8.29%. Moreover, the AC50 under setting [1] was 29.1 µM [rising, single point].
Take `COc1cc(Br)cc(/C=C/c2ccc3cccc(O)c3n2)c1O`: the cell number change is -18.9%.
`CC(=O)N1N=C(c2cccc(Cl)c2)OC1c1cccc([N+](=O)[O-])c1` (configuration not stated): the cell number change was determined as 14.6%.
`COc1ccccc1C1(O)CC2CCC(C1)N2S(=O)(=O)c1ccc(C(C)=O)cc1` (configuration not stated): the cell number change was -3.32%. For the same molecule, under setting [2], the concentration at half-maximal activity (AC50) is 0.00517 µM [rising, full curve, poor fit].
Take `Cc1cc(NC(=O)CCc2ccccc2)c([N+](=O)[O-])cc1C`: the cell number change worked out at 29.1%. For the same molecule, the AC50 under setting [1] was 1.3 µM [rising, full curve].
On to `O=C1CC(C(=O)Nc2ccccc2)N=C(N2CCOCC2)N1` (configuration not stated), for which the cell number change is -4.05%. The AC50 under setting [1] is 13 µM [falling, single point].
Turning to `COc1ccccc1OCCNC(=O)C1CC(=O)N(c2ccccc2OC)C1` (configuration not stated), the cell number change was -29.3%. Also, the AC50 under setting [2] was 0.0326 µM [falling, full curve, poor fit].
`O=C(CCn1c(=S)oc2ccccc21)Nc1cccc(O)c1`: the cell number change came out at 1.53%. The AC50 under setting [2] was 0.731 µM [falling, single point].
With `CCN1CCN(C(=S)Nc2ccccc2Cl)CC1`, the cell number change is -34.7%. The AC50 under setting [1] is 0.146 µM [falling, full curve].
Regarding `COc1ccccc1NC(=O)C(C)OC(=O)c1cc2ccccc2[nH]1` (configuration not stated), the cell number change was -10.3%.
In the case of `Cc1cc(O)c(C)c(O)c1/C=N/NC(=O)c1cccnc1`, the cell number change was -1.55%. Moreover, the AC50 under setting [1] was 29.1 µM [falling, single point].
As to `COc1ccc(N2CCN(C(=O)c3ccccc3N(C)S(=O)(=O)c3ccc(C)cc3)CC2)cc1`, the cell number change came out at 6.23%. Moreover, the AC50 under setting [1] is 6.51 µM [rising, single point].
As for `O=C(CSc1nnc(Cc2ccccc2)n1Cc1ccccc1)NCc1ccco1`, the cell number change was -31.9%. Moreover, under setting [2], the AC50 is 29.1 µM [falling, single point]. Also, the AC50 under setting [1] was 20.6 µM [falling, single point].
With `CC12CCC(=O)N1c1c(sc3nc(N4CCOCC4)c4c(c13)CCCC4)C(=O)N2` (configuration not stated), the cell number change is -29.5%. Also, the AC50 under setting [1] was 20.6 µM [falling, single point].
Take `CC1=C(C#N)C(NC(=O)C2CC2)(C(F)(F)F)C(=O)N1` (configuration not stated): the cell number change is -5.61%. Moreover, under setting [1], the half-maximal activity concentration (AC50) is 14.6 µM [falling, partial curve, poor fit].
As for `Cc1ccc(-c2cc(C(=O)O)c3sc(N4CCCCC4)nc3n2)cc1`, the cell number change is -53.3%. Further, the AC50 under setting [2] is 18.4 µM [falling, single point].
`Cc1cc(Br)ccc1OCCNCc1ccccc1`: the cell number change is -47.1%. Further, the AC50 under setting [2] is 0.731 µM [falling, full curve]. Besides, the AC50 under setting [1] was 0.731 µM [falling, full curve].
With `CS(=O)(=O)N1CCN(c2ccccc2NC(=O)CSc2ccc(Cl)cc2)CC1`, the cell number change was -24.7%. Moreover, the AC50 under setting [1] is 0.92 µM [rising, partial curve].
Turning to `O=C(NCC1(N2CCCCC2)CCCCC1)c1ccc(NS(=O)(=O)c2ccccc2)cc1`, the cell number change was -56.2%. Moreover, under setting [2], the AC50 is 0.291 µM [falling, full curve, poor fit]. Also, under setting [1], the AC50 is 1.16 µM [falling, partial curve, poor fit].
As for `O=[N+]([O-])c1ccc(NC(=S)NCCc2ccc(F)cc2)cc1`, the cell number change was -60.6%. For the same molecule, the AC50 under setting [2] was 16.4 µM [falling, partial curve]. Further, under setting [1], the AC50 was 14.6 µM [falling, partial curve].
Regarding `Cc1cc(Cl)ccc1NC(=O)COC(=O)c1c(C)noc1C`, the cell number change was -15.5%. Under setting [1], the AC50 was 0.116 µM [rising, full curve, poor fit].

(Values after PubChem BioAssay AID2685 (National Center for Advancing Translational Sciences (NCATS), 2010).)
